# Experimental data taken from the supplement of paper PMC7666118.
# Protein sequences, listed by entry. Tags and fused reporters are not part of them. Lines headed by an entry give the natural chain unless they say otherwise; changes in a name come on top.
# UniProt Q96HS1, whole entry: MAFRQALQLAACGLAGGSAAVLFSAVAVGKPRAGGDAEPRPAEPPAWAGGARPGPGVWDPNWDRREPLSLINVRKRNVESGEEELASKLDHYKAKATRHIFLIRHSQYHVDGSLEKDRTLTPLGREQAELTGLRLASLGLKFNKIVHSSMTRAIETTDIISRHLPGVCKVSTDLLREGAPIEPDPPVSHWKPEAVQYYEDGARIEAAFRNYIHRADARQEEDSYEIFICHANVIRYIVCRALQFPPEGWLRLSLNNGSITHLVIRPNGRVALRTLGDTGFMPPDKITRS
# UniProt Q99571: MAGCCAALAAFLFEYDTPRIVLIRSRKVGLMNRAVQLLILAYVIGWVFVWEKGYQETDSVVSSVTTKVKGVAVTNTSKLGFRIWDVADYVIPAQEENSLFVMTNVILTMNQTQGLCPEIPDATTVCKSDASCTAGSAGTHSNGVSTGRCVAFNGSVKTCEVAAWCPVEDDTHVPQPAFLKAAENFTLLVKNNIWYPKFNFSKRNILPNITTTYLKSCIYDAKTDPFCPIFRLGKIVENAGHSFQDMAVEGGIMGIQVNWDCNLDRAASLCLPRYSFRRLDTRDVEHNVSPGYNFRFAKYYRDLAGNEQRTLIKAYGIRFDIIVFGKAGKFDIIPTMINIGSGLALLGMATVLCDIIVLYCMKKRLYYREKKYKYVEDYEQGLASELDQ
# UniProt P49585: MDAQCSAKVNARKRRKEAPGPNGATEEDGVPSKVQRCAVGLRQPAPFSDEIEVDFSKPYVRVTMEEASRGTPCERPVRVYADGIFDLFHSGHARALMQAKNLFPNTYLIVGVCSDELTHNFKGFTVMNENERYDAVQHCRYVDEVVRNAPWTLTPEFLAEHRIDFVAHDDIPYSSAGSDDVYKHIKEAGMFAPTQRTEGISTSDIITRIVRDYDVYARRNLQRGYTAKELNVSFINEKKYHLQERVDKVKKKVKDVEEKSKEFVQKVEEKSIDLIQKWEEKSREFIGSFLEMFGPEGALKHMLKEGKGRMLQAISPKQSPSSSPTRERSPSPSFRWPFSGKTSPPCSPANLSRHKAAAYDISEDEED
# UniProt Q9BW27: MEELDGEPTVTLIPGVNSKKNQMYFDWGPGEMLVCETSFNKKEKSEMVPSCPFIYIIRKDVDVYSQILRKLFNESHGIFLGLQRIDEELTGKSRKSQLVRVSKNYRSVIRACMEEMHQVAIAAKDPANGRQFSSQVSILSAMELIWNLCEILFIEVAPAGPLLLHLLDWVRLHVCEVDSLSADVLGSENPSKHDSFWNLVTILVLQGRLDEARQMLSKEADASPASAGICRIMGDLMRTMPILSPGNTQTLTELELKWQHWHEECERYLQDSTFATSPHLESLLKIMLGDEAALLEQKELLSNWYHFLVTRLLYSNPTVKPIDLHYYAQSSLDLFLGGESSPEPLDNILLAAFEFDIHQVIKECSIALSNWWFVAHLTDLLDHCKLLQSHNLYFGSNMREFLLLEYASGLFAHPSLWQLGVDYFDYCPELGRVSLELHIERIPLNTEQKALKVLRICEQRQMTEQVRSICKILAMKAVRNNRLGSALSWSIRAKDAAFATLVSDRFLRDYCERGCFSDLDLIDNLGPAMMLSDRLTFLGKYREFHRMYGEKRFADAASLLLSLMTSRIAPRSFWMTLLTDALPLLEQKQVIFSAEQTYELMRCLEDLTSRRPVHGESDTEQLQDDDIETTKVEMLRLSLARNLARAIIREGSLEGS
# UniProt P07237: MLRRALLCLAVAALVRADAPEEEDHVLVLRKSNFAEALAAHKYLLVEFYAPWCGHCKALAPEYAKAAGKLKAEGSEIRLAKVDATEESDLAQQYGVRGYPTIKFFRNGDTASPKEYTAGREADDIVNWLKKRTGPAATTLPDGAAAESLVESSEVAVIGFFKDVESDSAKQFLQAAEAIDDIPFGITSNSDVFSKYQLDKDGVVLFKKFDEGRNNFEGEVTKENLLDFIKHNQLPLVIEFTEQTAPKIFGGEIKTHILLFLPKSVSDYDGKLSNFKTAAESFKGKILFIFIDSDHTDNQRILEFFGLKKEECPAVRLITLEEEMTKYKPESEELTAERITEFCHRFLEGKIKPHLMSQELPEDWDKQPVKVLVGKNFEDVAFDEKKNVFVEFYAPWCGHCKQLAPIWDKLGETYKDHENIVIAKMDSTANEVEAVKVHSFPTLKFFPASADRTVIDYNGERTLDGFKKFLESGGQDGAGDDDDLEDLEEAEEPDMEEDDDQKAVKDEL
# UniProt Q9H4Z3: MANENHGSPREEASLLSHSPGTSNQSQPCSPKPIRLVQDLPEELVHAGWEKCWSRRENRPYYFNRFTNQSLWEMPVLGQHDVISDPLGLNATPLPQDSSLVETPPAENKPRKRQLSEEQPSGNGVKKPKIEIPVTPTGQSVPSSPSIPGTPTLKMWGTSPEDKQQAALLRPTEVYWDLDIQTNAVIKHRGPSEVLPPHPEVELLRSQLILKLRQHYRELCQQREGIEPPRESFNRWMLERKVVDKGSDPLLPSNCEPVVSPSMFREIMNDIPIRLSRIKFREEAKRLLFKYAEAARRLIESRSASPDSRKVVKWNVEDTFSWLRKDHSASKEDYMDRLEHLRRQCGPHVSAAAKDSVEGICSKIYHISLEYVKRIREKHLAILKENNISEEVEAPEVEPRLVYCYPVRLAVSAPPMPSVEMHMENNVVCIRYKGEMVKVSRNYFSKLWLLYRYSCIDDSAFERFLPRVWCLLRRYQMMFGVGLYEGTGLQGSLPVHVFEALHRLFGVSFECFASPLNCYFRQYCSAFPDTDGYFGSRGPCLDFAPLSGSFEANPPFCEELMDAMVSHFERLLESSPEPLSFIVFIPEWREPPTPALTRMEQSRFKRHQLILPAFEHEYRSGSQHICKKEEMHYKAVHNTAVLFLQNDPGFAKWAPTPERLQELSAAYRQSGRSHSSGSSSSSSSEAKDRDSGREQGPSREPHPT
# UniProt P27815: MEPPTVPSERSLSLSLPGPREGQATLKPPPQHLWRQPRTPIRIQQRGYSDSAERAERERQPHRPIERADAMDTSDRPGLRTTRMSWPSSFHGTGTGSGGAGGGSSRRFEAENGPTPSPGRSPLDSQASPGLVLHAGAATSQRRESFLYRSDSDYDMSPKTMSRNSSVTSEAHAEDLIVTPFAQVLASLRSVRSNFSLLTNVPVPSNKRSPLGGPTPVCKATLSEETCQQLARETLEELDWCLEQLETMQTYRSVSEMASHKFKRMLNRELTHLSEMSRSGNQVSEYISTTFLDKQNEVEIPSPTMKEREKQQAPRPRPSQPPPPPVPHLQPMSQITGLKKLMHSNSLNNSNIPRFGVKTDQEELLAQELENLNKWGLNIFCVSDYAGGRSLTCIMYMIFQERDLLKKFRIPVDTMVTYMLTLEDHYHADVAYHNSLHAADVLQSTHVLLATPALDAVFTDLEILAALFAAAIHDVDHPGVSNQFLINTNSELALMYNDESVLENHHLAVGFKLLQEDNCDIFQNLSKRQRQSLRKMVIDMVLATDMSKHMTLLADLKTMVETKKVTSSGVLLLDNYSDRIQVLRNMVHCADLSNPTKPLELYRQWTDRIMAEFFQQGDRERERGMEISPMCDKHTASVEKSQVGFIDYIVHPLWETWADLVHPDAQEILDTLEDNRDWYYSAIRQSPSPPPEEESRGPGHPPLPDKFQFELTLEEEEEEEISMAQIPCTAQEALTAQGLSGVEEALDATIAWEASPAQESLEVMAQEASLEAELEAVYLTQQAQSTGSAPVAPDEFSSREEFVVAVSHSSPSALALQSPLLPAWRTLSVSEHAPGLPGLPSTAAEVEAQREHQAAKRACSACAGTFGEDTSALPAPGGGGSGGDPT
# UniProt O94921: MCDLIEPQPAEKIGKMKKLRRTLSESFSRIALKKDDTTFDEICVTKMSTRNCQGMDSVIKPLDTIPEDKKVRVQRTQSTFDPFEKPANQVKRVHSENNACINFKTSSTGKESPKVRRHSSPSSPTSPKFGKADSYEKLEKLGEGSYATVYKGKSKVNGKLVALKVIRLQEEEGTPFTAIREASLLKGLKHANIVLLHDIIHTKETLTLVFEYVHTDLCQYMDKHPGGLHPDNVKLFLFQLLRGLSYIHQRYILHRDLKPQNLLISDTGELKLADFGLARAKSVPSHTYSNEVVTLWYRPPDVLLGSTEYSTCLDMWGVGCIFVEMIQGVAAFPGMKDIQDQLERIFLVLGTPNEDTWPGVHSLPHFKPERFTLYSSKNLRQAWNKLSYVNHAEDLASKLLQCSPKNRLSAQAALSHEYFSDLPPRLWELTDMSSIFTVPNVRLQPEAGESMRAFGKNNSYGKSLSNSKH
# UniProt Q86TG7: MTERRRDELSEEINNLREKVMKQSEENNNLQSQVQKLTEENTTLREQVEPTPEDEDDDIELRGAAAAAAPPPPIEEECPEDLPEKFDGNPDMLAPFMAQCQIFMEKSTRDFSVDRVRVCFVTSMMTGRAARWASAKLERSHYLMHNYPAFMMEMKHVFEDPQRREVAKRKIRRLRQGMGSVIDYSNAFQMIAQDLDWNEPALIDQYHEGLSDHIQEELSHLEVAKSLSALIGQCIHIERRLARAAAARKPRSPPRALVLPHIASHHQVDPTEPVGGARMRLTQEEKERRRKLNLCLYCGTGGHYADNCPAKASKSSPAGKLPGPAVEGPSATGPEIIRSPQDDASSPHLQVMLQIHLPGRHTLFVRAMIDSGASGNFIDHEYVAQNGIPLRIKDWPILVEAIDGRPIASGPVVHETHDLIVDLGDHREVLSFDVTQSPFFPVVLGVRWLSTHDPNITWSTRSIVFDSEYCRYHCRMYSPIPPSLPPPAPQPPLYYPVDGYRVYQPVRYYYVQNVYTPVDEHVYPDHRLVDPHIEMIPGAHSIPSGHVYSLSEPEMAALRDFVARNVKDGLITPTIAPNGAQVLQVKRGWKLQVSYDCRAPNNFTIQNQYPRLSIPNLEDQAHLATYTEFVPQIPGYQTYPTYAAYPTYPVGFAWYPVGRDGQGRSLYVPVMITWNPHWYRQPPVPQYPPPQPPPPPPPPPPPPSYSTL
# UniProt Q9NR12, whole entry: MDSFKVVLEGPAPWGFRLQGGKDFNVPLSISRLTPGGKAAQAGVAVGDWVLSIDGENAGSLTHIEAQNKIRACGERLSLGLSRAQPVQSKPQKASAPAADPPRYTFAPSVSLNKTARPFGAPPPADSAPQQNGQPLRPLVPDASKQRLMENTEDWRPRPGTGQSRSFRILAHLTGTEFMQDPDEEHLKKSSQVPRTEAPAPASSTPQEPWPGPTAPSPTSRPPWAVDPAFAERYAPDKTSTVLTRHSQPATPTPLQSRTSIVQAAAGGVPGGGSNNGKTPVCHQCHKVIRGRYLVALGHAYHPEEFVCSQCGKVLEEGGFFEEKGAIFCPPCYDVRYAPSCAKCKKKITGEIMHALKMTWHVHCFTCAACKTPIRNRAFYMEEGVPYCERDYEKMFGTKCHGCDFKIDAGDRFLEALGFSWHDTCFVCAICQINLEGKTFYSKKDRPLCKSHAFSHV
# UniProt P52209: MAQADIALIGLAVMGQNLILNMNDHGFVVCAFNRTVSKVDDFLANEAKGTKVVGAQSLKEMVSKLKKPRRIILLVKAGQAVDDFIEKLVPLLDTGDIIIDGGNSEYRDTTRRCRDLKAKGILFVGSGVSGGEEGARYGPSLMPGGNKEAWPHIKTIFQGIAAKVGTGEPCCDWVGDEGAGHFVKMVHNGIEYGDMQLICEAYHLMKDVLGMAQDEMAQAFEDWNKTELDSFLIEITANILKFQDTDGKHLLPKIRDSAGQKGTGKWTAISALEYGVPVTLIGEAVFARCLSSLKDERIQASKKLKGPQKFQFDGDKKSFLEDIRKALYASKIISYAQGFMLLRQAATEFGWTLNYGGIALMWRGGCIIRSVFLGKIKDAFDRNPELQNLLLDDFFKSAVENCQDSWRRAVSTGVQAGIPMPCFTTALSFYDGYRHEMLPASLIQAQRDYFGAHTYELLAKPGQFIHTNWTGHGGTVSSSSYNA
# UniProt Q9UBU9: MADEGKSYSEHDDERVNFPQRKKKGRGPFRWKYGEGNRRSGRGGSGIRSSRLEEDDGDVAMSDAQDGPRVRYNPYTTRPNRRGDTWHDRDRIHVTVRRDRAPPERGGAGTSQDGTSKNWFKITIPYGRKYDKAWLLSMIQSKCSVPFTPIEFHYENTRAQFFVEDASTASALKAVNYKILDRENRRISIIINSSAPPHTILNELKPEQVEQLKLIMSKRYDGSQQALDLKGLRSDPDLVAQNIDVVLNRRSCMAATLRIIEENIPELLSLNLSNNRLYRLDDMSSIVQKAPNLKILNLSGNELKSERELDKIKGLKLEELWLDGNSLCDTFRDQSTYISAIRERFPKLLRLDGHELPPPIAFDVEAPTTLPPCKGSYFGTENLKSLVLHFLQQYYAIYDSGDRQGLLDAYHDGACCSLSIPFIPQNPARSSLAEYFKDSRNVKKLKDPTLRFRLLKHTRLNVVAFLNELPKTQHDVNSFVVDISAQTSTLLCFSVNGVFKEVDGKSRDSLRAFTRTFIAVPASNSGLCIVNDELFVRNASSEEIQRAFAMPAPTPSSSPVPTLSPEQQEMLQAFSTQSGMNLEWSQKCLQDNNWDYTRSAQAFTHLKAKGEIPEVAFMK
# This is one part of the list.
# Compound: COc1ccc(Cn2ccc3ccc(C(=O)NO)cc32)cc1
# Experiment: dose-dependent thermal stabilisation call (2D-TPP, DLPTP, 10% FDR) (binary (1 = stabilised)); higher = stabilised by the compound
# Conditions: system: HL-60 intact cells; concentration range 0.04-10 µM
row,Target,dose-dependent thermal stabilisation call
1,NUDC (UniProt Q9Y266),inactive: 0
2,NSUN4 (UniProt Q96CB9),inactive: 0
3,PGAM5 (UniProt Q96HS1),inactive: 0
4,PDCD11 (UniProt Q14690),inactive: 0
5,P2RX4 (UniProt Q99571),inactive: 0
6,PFAS (UniProt O15067),inactive: 0
7,PCYT1A (UniProt P49585),inactive: 0
8,PCLO (UniProt Q9Y6V0),inactive: 0
9,PDXDC1 (UniProt Q6P996),inactive: 0
10,NUP85 (UniProt Q9BW27),inactive: 0
11,OGT (UniProt O15294),inactive: 0
12,NUDT3 (UniProt O95989),inactive: 0
13,OTUD7B (UniProt Q6GQQ9),inactive: 0
14,PEX12 (UniProt O00623),inactive: 0
15,PARG (UniProt Q86W56),inactive: 0
16,NUP214 (UniProt P35658),inactive: 0
17,PDS5B (UniProt Q9NTI5),inactive: 0
18,NSUN3 (UniProt Q9H649),inactive: 0
19,P4HB (UniProt P07237),inactive: 0

row,Target,dose-dependent thermal stabilisation call
1,PCIF1 (UniProt Q9H4Z3),inactive: 0
2,NUP93 (UniProt Q8N1F7),inactive: 0
3,PDE4A (UniProt P27815),inactive: 0
4,PFTK1 (UniProt O94921),inactive: 0
5,PELO (UniProt Q9BRX2),inactive: 0
6,PECI (UniProt O75521),inactive: 0
7,OPLAH (UniProt O14841),inactive: 0
8,PFDN5 (UniProt Q99471),inactive: 0
9,NUTF2 (UniProt P61970),inactive: 0
10,PEG10 (UniProt Q86TG7),inactive: 0
11,NUF2 (UniProt Q9BZD4),inactive: 0
12,PDLIM7 (UniProt Q9NR12),inactive: 0
13,PANK3 (UniProt Q9H999),inactive: 0
14,NUP98 (UniProt P52948),inactive: 0
15,OXSM (UniProt Q9NWU1),inactive: 0
16,PGD (UniProt P52209),inactive: 0
17,NXF1 (UniProt Q9UBU9),inactive: 0
18,P2RY11 (UniProt Q96G91),inactive: 0

# Quoted at random: 2 records from the list.
row,Target,dose-dependent thermal stabilisation call
11,NUF2 (UniProt Q9BZD4),inactive: 0
1,PCIF1 (UniProt Q9H4Z3),inactive: 0
